# According to article PMC3270039:
# Amino acid sequences for entries named in this document (tags omitted). A change or cut given only in a name is not applied to a line headed by its entry.
# UniProt Q04207: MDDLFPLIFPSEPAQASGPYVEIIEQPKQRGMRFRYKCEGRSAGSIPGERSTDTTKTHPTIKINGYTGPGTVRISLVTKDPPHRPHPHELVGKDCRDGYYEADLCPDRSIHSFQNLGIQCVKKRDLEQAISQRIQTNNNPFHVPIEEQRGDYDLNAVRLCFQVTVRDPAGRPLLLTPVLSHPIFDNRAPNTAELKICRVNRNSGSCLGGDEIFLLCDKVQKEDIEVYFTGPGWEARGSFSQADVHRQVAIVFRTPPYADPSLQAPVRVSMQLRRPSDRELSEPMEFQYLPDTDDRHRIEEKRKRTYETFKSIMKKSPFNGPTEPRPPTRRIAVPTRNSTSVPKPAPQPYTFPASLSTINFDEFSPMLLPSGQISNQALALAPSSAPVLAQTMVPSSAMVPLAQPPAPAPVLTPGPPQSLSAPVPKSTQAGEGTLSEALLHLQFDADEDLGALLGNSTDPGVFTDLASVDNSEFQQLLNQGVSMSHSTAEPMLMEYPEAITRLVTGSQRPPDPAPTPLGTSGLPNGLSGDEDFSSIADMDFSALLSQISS
# UniProt O75582: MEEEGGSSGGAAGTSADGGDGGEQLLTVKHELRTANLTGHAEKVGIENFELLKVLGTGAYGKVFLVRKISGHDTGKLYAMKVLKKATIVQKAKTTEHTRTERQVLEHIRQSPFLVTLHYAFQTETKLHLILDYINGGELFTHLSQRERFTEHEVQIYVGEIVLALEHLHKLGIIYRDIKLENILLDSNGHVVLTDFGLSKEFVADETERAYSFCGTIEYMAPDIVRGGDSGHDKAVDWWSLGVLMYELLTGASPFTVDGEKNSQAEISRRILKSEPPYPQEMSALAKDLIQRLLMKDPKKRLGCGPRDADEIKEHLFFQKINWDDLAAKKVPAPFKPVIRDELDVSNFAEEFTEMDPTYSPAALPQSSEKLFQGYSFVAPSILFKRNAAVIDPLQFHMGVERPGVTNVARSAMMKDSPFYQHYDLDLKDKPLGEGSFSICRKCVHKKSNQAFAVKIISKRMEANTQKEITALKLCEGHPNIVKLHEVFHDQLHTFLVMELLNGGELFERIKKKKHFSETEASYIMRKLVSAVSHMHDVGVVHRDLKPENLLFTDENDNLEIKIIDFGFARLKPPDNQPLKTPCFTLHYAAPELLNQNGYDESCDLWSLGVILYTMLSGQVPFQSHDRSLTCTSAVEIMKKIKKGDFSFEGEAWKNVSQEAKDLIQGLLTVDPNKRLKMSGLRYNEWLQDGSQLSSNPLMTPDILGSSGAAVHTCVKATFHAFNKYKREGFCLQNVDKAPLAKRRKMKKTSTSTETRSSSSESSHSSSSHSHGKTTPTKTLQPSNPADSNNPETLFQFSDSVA
# UniProt Q8C050: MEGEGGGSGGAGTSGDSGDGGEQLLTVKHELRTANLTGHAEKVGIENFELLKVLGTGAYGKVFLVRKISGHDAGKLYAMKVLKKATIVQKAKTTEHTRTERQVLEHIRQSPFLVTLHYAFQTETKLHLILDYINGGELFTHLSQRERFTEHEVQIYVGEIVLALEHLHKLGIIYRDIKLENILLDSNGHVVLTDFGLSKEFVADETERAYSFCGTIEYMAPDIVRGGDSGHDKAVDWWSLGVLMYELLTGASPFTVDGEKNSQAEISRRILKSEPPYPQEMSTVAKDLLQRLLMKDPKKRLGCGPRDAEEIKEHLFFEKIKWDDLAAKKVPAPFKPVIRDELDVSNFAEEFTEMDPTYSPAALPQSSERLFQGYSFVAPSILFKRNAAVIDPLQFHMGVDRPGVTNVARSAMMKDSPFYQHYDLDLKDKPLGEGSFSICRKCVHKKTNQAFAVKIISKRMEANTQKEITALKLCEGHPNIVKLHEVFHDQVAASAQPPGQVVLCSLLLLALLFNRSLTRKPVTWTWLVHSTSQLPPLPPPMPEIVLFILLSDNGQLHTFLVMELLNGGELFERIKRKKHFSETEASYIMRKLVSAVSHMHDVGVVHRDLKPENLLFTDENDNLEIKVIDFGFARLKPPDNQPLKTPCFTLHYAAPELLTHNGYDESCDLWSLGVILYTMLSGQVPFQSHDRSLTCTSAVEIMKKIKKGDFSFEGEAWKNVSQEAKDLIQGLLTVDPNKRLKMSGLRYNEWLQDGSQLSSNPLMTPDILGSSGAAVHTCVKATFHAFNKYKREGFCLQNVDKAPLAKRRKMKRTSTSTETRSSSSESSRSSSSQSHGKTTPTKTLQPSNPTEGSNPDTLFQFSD
# UniProt Q09472: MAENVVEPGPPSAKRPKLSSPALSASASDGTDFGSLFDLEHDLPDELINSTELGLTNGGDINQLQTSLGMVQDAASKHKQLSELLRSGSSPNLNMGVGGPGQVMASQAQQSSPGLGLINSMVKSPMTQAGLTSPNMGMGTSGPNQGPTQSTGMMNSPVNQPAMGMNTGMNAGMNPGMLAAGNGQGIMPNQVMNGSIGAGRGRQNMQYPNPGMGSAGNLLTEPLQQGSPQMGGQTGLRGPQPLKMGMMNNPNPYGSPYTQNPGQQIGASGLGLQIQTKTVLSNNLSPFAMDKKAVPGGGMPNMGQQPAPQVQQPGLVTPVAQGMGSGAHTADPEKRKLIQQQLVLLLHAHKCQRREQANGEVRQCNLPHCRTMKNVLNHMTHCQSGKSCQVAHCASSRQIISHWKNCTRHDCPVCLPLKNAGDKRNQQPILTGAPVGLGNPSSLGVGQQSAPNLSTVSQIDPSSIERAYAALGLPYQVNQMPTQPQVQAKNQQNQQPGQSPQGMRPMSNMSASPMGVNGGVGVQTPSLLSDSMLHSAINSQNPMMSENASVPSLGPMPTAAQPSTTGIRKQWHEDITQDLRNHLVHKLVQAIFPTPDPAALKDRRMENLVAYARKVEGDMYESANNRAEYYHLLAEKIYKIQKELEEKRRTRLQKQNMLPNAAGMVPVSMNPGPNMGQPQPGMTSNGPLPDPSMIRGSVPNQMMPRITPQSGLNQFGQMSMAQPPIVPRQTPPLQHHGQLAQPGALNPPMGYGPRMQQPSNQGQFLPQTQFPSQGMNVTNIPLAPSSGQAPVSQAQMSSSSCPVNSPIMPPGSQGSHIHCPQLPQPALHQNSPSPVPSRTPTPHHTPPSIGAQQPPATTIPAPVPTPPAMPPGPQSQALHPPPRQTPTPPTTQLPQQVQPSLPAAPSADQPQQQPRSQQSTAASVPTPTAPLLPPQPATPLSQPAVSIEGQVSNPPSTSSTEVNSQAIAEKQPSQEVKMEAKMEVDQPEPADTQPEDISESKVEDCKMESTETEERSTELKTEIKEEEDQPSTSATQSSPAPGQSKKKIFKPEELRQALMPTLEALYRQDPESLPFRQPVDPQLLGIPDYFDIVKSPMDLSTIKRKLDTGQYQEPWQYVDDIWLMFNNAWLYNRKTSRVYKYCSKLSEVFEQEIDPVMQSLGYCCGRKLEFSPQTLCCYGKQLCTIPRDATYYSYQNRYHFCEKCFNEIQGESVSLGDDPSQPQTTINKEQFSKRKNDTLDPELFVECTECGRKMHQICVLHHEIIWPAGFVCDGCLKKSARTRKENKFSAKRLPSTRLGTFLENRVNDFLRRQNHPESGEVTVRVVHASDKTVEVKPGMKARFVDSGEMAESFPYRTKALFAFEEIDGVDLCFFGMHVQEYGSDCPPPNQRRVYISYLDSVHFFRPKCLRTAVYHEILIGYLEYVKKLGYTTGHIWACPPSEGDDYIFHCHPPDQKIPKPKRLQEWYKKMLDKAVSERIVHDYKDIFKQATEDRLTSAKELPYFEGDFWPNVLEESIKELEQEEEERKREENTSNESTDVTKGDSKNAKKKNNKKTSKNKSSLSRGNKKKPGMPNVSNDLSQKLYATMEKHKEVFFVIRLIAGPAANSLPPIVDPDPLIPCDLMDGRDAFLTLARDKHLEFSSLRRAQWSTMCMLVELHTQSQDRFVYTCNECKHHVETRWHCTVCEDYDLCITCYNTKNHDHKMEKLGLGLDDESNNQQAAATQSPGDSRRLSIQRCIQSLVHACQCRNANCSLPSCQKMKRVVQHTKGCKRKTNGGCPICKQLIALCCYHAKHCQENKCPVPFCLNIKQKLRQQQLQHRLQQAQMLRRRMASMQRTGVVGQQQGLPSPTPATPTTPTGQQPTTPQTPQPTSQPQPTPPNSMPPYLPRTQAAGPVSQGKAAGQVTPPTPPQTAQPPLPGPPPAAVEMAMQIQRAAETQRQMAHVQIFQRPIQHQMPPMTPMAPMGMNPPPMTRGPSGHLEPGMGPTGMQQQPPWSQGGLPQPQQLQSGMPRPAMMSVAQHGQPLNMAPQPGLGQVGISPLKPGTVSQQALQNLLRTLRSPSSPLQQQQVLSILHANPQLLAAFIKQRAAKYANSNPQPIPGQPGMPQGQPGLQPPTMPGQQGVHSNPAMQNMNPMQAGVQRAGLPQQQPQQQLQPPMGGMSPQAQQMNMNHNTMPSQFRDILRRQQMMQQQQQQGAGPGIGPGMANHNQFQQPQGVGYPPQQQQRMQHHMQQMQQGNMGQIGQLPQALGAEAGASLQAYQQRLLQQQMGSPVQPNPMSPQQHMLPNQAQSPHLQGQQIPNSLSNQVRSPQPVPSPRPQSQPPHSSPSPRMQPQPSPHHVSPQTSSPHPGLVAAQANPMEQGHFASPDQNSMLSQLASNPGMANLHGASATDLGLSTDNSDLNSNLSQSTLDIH
# UniProt Q04206: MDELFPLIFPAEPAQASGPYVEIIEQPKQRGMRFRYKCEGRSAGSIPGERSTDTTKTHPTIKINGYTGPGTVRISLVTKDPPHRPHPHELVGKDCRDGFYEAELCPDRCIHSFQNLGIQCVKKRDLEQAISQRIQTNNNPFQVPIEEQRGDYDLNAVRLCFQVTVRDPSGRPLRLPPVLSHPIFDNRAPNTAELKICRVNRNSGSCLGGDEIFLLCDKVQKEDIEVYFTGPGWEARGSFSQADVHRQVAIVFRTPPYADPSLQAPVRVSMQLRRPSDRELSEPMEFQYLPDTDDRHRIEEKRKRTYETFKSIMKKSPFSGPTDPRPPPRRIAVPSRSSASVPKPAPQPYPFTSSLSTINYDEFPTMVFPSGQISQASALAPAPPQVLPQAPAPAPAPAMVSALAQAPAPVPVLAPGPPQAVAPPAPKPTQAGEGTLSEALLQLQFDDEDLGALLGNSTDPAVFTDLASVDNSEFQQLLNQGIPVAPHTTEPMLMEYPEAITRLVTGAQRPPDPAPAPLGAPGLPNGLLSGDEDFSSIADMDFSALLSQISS
# Results are given in words; binding and its absence hold for the method and conditions named. In cells and extracts the contact can be indirect. Some entries that bind do so weakly or less than the wild type.
# Experiments:
# [1] = molecular target: RelA/p65 (endogenous, mouse lung) (mouse (endogenous in C57BL/6J lung)) (UniProt Q04207); experiment: co-IP; endogenous proteins; whole lung tissue extract (500 µg) of C57BL/6J mice exposed to air or cigarette smoke (300 mg/m^3 TPM, 3 days); immunoprecipitation with anti-MSK1 or anti-RelA/p65; immunoblot
# [2] = molecular target: Mitogen- and stress-activated kinase 1 (MSK1), native, H292 cells (human (endogenous in H292)) (UniProt O75582); experiment: co-IP; endogenous proteins; H292 nuclear extract (1000 µg), cells treated 1 h with or without CSE (2%), TNFα (10 ng/ml) as positive control; immunoprecipitation with anti-MSK1 or anti-RelA/p65 and protein A/G agarose; immunoblot
# [3] = molecular target: FLAG-MSK1 wild-type (mitogen- and stress-activated kinase 1, from pCMV-FLAG-MSK1 wild-type) (UniProt O75582); experiment: co-IP; anti-flag M2 affinity gel on whole cell lysates (250–500 µg) of transiently transfected H292 cells treated with or without CSE (1%) for 1 h; immunoblot with anti-flag and anti-RelA/p65
# [4] = molecular target: FLAG-MSK1 D195A (N-terminal kinase-dead mutant, from pCMV-FLAG-MSK1 D195A) (UniProt O75582); experiment: as above
substance,measurement,setting,value
"MSK1 (endogenous, mouse lung) (from UniProt Q8C050 1-863) (enzyme)",binding,[1],binds
"p300 (coactivator, endogenous, H292 cells) (from UniProt Q09472 1-2414)",binding,[2],binds
"NF-κB RelA/p65 (endogenous, H292 cells) (from UniProt Q04206 1-551)",binding,[2],binds
same,binding,[3],binds
same,binding,[4],binds
